Patent publication US12303511B2 (priority 2018, dated 2025)

Legend:
[1] = tested on: transgenic C. elegans (tgMOR) that express mammalian MOR; details: in vivo
Gpr139−/− mice = details: chronic administration, mice lacking GPR139 vs wild-type

CN1CC[C@]23c4c5ccc(O)c4O[C@H]2[C@@H](O)C=C[C@H]3[C@H]1C5 [morphine]
shift of the dose response [1]: prominent left-ward shift in concentration dependence | dependence (withdrawal across a spectrum of behaviors) (Gpr139−/− mice): lower dependence
